Assay results as given in publication PMC11666463.
No constants are given. Whether binding was seen depends on the method and setting. Binding seen in cells or lysates may run through a third protein. Some results given as binding are weak or reduced against the parent protein; the word gives no strength.

Sequences of proteins named here, by UniProt entry; tags and fusion partners are left off. Residues count along the entry.
UniProt P21796: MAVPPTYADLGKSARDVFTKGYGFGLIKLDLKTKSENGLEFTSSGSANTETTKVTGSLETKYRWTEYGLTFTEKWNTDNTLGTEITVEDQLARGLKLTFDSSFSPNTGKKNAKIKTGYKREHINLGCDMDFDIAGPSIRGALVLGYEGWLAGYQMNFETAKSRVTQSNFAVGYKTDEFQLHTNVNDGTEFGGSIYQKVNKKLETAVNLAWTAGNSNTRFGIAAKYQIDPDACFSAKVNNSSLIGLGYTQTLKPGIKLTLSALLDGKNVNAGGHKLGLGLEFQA
UniProt P22607, residues 23-806: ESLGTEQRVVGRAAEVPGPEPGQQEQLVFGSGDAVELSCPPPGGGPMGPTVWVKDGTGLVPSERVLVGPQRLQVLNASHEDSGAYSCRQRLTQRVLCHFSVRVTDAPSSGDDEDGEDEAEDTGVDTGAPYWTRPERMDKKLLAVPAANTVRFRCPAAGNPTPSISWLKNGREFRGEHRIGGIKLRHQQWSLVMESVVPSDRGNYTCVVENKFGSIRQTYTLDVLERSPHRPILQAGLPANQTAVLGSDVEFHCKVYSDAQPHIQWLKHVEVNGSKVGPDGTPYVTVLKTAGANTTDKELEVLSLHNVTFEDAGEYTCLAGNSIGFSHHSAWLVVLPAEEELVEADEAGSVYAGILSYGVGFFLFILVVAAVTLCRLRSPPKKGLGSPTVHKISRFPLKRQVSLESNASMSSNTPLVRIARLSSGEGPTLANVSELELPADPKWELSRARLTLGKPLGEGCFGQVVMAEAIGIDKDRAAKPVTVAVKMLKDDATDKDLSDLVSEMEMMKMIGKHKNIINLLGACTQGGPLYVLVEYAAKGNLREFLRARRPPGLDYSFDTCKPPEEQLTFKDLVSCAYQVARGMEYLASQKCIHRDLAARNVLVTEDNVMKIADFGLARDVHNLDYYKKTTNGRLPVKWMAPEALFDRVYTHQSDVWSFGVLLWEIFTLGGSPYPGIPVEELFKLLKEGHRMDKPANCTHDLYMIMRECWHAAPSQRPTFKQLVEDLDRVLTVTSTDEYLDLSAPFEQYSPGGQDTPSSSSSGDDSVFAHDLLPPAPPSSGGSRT

Target: major vault protein (human (endogenous in H358 and MIA PaCa-2)) (UniProt Q14764)
Test: proximity ligation; PLA with two primary antibodies on fixed, methanol-permeabilised H358 or MIA PaCa-2 cells, DMSO or 100 nM AMG-510 for 24 h; some with MVP or scrambled siRNA; puncta per cell

| binding | Substance |
| --- | --- |
| binds | epidermal growth factor receptor (from UniProt P00533 25-1210) |
| binds | voltage-dependent anion channel 1 (from UniProt P21796 1-283) |
| binds | fibroblast growth factor receptor 3 (from UniProt P22607 23-806) |
